The odorant receptor screen of Mainland et al. (2015)
Several values for one entry are separate records, joined by “and”; a condition that tells them apart may be missing. Identical values can stand only once. This is one part of the list. Each value is one well over the wells without odorant, computed here; the data are noisy.

Experiments:
Experiment in all cases: odorant receptor activation (CRE luciferase / Renilla) (fold of no-odor wells); higher = more activation
Conditions in all cases: 100 µM
[1] = system: OR51A2 clone 1577
[2] = system: OR51A4 G45C/L227P/R267G clone 1166
[3] = system: OR51B2 clone 1551
[4] = system: OR51B4 V36I/M147T clone 1552
[5] = system: OR51B5 clone 1553
[6] = system: OR51B6 clone 1554
[7] = system: OR51D1 clone 1206
[8] = system: OR51E1 S11N clone 1532
[9] = system: OR51E1 clone 1129
[10] = system: OR51E2 clone 1205
[11] = system: OR51F2 clone 1330
[12] = system: OR51G1 clone 1165
[13] = system: OR51G2 clone 1199
[14] = system: OR51H1 clone 1187
[15] = system: OR51I1 clone 1555
[16] = system: OR51I2 clone 1133
[17] = system: OR51J1 R75H clone 1698
[18] = system: OR51L1 I281M clone 1535
[19] = system: OR51L1 T196I/A207V clone 1533
[20] = system: OR51L1 clone 1183

CC=Cc1ccc(O)c(OC)c1 [isoeugenol]
odorant receptor activation [1]: 3.2
odorant receptor activation [2]: 0.964
odorant receptor activation [3]: 3.11
odorant receptor activation [4]: 4.04
odorant receptor activation [5]: 5.33
odorant receptor activation [6]: 0.922
odorant receptor activation [7]: 0.827
odorant receptor activation [8]: 0.901 and 1.36
odorant receptor activation [9]: 1.05
odorant receptor activation [10]: 1.17
odorant receptor activation [11]: 1.04 and 1.57
odorant receptor activation [12]: 0.963
odorant receptor activation [13]: 0.926
odorant receptor activation [14]: 1.15
odorant receptor activation [15]: 0.774
odorant receptor activation [16]: 0.988
odorant receptor activation [17]: 3.31
odorant receptor activation [18]: 1.14 and 1.62
odorant receptor activation [19]: 1.54 and 1.16
odorant receptor activation [20]: 0.903

CC(C)=CCCC(C)=CC=O [citral]
odorant receptor activation [1]: 1.84
odorant receptor activation [2]: 1.19
odorant receptor activation [3]: 1.49
odorant receptor activation [4]: 1
odorant receptor activation [5]: 0.965
odorant receptor activation [6]: 1.54
odorant receptor activation [7]: 1.03
odorant receptor activation [8]: 1.04
odorant receptor activation [9]: 1.45
odorant receptor activation [10]: 1.21
odorant receptor activation [11]: 0.987
odorant receptor activation [12]: 1.14
odorant receptor activation [13]: 0.935
odorant receptor activation [14]: 1.11
odorant receptor activation [15]: 1.43
odorant receptor activation [16]: 1.21
odorant receptor activation [17]: 0.048
odorant receptor activation [18]: 0.887
odorant receptor activation [19]: 0.698
odorant receptor activation [20]: 0.885

O=CCc1ccccc1 [phenyl acetaldehyde]
odorant receptor activation [1]: 1.93
odorant receptor activation [2]: 1.25
odorant receptor activation [3]: 1.14
odorant receptor activation [4]: 0.895
odorant receptor activation [5]: 1.24
odorant receptor activation [6]: 1.4
odorant receptor activation [7]: 1.36
odorant receptor activation [8]: 0.738
odorant receptor activation [9]: 0.794
odorant receptor activation [10]: 0.695
odorant receptor activation [11]: 0.774
odorant receptor activation [12]: 0.95
odorant receptor activation [13]: 0.896
odorant receptor activation [14]: 1.51
odorant receptor activation [15]: 1.53
odorant receptor activation [16]: 1.02
odorant receptor activation [17]: 1.27
odorant receptor activation [18]: 4.92
odorant receptor activation [19]: 2.57
odorant receptor activation [20]: 1.94

CC1CCC(C(C)C)C(O)C1 (single isomer, unassigned; (+)) [(+)-menthol]
odorant receptor activation [1]: 0.88
odorant receptor activation [2]: 1.29
odorant receptor activation [3]: 0.715
odorant receptor activation [4]: 0.705
odorant receptor activation [5]: 0.807
odorant receptor activation [6]: 0.978
odorant receptor activation [7]: 0.919
odorant receptor activation [8]: 1.14
odorant receptor activation [9]: 1.55
odorant receptor activation [10]: 1.14
odorant receptor activation [11]: 0.748
odorant receptor activation [12]: 1.83
odorant receptor activation [13]: 1.27
odorant receptor activation [14]: 1.13
odorant receptor activation [15]: 1.13
odorant receptor activation [16]: 1.31
odorant receptor activation [17]: 0.744
odorant receptor activation [18]: 1.22
odorant receptor activation [19]: 1.2
odorant receptor activation [20]: 1.61

O=C1CCCCCCCCCCCC(=O)OCCO1 [ethylene brassylate]
odorant receptor activation [1]: 1.01
odorant receptor activation [2]: 1.82
odorant receptor activation [3]: 1.57
odorant receptor activation [4]: 2.29
odorant receptor activation [5]: 1.12
odorant receptor activation [6]: 1.96
odorant receptor activation [7]: 1.47
odorant receptor activation [8]: 1.12
odorant receptor activation [9]: 1.41
odorant receptor activation [10]: 1.18
odorant receptor activation [11]: 1.67
odorant receptor activation [12]: 1.74
odorant receptor activation [13]: 2.1
odorant receptor activation [14]: 1.36
odorant receptor activation [15]: 1.1
odorant receptor activation [16]: 1.33
odorant receptor activation [17]: 1.08
odorant receptor activation [18]: 1.13
odorant receptor activation [19]: 1.21
odorant receptor activation [20]: 1.76

C=CCc1ccc(OC(C)=O)c(OC)c1 [eugenol acetate]
odorant receptor activation [1]: 1.93
odorant receptor activation [2]: 1.45
odorant receptor activation [3]: 2.13
odorant receptor activation [4]: 1.99
odorant receptor activation [5]: 1.79
odorant receptor activation [6]: 3.38
odorant receptor activation [7]: 1.58
odorant receptor activation [8]: 1.34
odorant receptor activation [9]: 1.24
odorant receptor activation [10]: 1.8
odorant receptor activation [11]: 1.57
odorant receptor activation [12]: 2.17
odorant receptor activation [13]: 1.9
odorant receptor activation [14]: 1.47
odorant receptor activation [15]: 1.81
odorant receptor activation [16]: 1.6
odorant receptor activation [17]: 2.25
odorant receptor activation [18]: 1.84
odorant receptor activation [19]: 2.26
odorant receptor activation [20]: 2.5

CC(C)CC(=O)O [isovaleric acid]
odorant receptor activation [1]: 0.768
odorant receptor activation [2]: 0.999
odorant receptor activation [3]: 0.96
odorant receptor activation [4]: 0.992
odorant receptor activation [5]: 1.1
odorant receptor activation [6]: 0.893
odorant receptor activation [7]: 1.15
odorant receptor activation [8]: 1
odorant receptor activation [9]: 2.17
odorant receptor activation [10]: 1.28
odorant receptor activation [11]: 0.811
odorant receptor activation [12]: 1.01
odorant receptor activation [13]: 1.51
odorant receptor activation [14]: 1.2
odorant receptor activation [15]: 0.828
odorant receptor activation [16]: 0.996
odorant receptor activation [17]: 0.847
odorant receptor activation [18]: 0.847
odorant receptor activation [19]: 0.747
odorant receptor activation [20]: 1.14
